Laboratory results taken from the supplement of paper PMC12823440, “Inhibitors supercharge kinase turnover through native proteolytic circuits” (Nature, 2025).
The other results are listed elsewhere or left out. The calls rarely recur for the same compound in another form.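 Kinases were expressed as nanoluciferase fusions in K562 cells and luminescence was read every 4 h between 2 and 18 h as percent of control, DMSO set to 100% and a positive control to 0%. A time point counts as decreased when the signal drops significantly (2 sigma). The hit call is the authors' own, does not follow from the count of time points alone, and its rule is not shown.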

Sequences of proteins named here, by UniProt entry; tags and fusion partners are left off. A change or cut given only in a name is not applied to a line headed by its entry.
UniProt P07949, whole entry, looked up: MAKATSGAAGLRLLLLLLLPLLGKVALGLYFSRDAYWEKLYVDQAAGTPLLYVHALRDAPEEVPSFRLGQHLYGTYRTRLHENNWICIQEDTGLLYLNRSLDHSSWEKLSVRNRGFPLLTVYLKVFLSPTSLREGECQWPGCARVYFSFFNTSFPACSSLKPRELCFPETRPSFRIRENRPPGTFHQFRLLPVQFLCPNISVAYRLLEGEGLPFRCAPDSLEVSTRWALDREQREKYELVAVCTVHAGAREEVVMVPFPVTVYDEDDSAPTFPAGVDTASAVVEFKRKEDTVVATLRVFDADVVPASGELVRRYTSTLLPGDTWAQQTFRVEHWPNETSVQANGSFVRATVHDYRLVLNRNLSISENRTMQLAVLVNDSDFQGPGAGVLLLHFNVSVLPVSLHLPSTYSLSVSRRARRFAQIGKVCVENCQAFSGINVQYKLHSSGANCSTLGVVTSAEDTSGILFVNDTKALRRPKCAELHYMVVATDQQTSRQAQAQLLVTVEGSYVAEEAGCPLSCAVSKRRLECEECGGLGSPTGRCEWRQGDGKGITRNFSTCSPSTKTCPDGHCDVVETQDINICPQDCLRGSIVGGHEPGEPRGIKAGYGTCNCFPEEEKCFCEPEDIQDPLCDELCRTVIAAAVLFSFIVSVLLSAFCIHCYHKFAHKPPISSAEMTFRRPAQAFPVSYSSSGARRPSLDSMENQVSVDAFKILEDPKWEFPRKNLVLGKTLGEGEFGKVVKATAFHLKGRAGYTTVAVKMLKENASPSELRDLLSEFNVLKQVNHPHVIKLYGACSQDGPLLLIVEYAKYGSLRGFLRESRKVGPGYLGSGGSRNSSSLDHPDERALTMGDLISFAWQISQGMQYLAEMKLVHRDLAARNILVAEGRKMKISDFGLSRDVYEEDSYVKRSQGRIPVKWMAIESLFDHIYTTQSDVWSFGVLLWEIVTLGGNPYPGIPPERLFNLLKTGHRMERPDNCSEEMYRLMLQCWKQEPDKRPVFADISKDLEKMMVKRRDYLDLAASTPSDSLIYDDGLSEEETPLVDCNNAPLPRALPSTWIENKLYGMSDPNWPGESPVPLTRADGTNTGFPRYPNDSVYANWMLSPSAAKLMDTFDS
UniProt P07949, whole entry M918T, looked up: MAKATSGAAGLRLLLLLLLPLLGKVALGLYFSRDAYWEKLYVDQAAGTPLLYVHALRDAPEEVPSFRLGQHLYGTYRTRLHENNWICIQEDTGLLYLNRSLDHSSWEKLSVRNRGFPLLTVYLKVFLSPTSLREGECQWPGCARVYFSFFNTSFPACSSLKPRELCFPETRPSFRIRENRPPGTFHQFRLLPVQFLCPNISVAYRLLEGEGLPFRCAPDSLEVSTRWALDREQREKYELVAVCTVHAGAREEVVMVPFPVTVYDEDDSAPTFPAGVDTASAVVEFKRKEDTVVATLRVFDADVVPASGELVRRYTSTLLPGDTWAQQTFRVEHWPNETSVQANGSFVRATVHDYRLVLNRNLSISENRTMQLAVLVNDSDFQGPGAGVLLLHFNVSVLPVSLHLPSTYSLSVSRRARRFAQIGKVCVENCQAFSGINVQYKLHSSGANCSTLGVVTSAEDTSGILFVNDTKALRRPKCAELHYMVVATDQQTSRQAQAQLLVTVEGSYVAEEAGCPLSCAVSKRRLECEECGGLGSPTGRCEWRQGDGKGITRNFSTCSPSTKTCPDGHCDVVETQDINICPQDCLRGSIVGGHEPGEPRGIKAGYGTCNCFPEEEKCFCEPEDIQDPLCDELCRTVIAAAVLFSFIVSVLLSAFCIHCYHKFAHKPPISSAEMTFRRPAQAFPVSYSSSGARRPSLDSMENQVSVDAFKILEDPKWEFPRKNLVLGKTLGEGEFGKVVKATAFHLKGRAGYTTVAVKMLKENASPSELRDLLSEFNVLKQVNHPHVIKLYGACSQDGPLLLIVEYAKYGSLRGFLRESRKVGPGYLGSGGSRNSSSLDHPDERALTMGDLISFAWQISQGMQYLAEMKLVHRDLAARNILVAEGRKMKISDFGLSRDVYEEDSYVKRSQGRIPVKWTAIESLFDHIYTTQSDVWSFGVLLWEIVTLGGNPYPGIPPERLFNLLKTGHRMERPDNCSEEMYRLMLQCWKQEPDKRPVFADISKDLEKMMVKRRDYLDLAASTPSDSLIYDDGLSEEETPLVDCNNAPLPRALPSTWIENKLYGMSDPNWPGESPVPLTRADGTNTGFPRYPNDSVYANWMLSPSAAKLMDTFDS
UniProt Q9BRS2: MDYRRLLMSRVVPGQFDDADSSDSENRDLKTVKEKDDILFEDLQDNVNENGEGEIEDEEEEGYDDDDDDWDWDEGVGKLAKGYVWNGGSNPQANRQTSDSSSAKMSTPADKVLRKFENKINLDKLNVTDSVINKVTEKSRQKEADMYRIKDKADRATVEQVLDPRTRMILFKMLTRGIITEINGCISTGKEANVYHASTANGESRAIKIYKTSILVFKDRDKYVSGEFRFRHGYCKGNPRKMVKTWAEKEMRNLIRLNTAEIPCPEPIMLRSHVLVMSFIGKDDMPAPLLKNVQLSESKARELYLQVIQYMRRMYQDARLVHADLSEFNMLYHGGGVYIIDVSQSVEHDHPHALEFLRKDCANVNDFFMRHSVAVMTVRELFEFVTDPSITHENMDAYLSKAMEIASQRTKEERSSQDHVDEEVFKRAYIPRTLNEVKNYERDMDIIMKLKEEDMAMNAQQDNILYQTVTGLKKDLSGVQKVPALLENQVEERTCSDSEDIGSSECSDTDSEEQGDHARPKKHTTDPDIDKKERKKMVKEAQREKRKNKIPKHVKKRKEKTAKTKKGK
UniProt Q9NYA1, whole entry: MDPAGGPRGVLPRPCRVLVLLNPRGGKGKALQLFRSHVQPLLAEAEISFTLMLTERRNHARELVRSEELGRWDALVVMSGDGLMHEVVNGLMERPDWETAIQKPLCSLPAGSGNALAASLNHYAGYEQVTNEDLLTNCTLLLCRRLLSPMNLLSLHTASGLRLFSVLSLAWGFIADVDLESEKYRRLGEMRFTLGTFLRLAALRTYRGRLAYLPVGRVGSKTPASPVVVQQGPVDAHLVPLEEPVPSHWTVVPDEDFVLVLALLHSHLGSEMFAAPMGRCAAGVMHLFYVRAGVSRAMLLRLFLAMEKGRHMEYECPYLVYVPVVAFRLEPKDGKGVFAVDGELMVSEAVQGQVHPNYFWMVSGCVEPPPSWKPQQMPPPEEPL
UniProt Q9Y6E0: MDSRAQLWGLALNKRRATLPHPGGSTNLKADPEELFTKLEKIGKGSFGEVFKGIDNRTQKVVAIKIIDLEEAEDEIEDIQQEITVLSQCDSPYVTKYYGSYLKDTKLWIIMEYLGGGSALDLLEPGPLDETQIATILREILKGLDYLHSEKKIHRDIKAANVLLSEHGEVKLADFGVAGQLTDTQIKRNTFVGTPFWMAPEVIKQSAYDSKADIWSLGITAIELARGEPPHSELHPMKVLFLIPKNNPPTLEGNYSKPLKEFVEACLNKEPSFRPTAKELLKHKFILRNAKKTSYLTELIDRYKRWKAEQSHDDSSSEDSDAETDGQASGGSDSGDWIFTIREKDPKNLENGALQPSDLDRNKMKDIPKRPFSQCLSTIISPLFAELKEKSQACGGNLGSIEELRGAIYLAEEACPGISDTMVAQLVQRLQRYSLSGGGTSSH
UniProt P29597: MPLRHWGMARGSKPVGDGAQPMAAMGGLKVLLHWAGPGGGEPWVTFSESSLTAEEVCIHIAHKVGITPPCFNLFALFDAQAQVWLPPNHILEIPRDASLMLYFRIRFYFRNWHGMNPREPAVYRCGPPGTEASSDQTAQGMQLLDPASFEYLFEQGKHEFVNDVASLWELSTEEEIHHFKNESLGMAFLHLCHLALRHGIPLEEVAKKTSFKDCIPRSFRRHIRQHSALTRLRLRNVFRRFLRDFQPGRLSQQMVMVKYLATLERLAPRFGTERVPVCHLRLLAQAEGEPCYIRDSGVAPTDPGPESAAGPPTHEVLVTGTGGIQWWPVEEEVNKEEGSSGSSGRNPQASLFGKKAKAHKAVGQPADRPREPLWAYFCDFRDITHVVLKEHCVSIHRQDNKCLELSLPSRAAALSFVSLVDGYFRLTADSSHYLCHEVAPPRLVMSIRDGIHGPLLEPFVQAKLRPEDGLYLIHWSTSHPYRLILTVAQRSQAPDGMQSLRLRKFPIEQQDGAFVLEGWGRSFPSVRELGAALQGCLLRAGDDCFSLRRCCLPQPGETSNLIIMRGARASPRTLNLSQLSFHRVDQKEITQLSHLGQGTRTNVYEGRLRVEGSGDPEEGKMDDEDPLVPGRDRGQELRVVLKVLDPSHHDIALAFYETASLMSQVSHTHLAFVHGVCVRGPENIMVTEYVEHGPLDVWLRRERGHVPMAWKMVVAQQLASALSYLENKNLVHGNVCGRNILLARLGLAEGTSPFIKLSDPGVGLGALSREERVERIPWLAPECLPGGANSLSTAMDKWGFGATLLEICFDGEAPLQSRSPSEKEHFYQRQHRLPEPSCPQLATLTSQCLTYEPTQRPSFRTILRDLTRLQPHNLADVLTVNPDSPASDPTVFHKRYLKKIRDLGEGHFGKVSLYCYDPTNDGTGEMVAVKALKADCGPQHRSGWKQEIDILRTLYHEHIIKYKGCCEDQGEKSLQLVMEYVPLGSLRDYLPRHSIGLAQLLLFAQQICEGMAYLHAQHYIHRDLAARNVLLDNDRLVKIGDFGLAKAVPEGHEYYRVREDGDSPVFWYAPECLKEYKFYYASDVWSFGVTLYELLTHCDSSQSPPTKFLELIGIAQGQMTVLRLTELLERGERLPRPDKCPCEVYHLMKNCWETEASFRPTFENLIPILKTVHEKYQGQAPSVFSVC
UniProt P00519, whole entry: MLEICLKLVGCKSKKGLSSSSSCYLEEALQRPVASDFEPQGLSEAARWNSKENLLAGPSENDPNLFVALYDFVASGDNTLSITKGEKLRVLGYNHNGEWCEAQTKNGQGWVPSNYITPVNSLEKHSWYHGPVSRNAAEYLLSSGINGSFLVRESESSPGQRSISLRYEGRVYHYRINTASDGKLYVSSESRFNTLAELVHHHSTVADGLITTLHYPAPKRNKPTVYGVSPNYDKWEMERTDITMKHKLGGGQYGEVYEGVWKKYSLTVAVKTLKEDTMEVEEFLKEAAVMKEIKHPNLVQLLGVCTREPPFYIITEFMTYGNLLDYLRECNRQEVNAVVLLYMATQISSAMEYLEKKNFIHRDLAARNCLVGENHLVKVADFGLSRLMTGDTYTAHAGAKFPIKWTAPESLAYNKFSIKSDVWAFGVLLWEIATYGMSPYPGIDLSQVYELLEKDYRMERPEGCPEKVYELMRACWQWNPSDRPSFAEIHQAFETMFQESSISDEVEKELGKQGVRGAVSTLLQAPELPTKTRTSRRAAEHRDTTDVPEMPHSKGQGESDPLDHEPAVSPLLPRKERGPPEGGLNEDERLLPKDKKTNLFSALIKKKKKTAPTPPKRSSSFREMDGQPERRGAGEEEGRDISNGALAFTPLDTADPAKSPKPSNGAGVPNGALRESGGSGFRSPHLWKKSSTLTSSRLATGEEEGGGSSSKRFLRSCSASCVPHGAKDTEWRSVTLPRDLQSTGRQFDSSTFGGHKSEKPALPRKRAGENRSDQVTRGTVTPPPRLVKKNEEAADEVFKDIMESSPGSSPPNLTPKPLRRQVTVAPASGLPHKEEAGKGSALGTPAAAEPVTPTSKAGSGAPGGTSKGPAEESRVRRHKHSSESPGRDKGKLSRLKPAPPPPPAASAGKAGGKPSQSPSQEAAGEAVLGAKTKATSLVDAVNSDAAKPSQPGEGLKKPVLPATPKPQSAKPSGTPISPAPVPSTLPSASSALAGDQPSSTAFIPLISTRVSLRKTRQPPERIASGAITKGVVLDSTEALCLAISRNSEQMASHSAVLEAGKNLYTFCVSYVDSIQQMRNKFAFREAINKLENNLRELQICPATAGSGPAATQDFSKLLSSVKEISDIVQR
UniProt P31749: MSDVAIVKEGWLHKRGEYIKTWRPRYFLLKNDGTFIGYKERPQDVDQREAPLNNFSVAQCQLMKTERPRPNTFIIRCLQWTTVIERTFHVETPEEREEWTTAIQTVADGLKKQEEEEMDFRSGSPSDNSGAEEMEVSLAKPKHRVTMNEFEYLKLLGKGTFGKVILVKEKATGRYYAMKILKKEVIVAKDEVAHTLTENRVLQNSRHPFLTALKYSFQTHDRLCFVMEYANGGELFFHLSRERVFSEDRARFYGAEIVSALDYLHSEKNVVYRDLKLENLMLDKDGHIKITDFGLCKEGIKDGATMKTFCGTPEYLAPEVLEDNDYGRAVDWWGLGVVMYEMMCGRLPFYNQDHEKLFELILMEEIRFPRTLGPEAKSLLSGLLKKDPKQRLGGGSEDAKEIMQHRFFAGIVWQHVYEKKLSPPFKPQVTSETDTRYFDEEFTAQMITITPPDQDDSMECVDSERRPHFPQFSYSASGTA

What was measured:
Details in all cases: K562; 2-18 h
RET = RET (UniProt P07949); assay: kinase-Nluc reporter destabilization hit call (1 = scored as downregulated) (binary); higher = compound decreases kinase abundance
[1] = target: RET_M918T (clone: RET_mut) (UniProt P07949); assay: as above
RIOK1 = RIOK1 (UniProt Q9BRS2); assay: as above
RIPK1 = RIPK1 (UniProt Q13546); assay: as above
RIPK2 = RIPK2 (UniProt O43353); assay: as above
ROR2 = ROR2 (UniProt Q01974); assay: as above
RPS6KA1 = RPS6KA1 (UniProt Q15418); assay: as above
SPHK1 = SPHK1 (UniProt Q9NYA1); assay: as above
SRC = SRC (UniProt P12931); assay: as above
STK24 = STK24 (UniProt Q9Y6E0); assay: as above
STK38 = STK38 (UniProt Q15208); assay: as above
SYK = SYK (UniProt P43405); assay: as above
TEC = TEC (UniProt P42680); assay: as above
TYK2 = TYK2 (UniProt P29597); assay: as above
ULK3 = ULK3 (UniProt Q6PHR2); assay: as above
YES1 = YES1 (UniProt P07947); assay: as above
ZAK = ZAK (UniProt Q9NYL2); assay: as above
ZAP70 = ZAP70 (UniProt P43403); assay: as above
ABL1 = ABL1 (UniProt P00519); assay: number of time points (of 5) at which kinase-Nluc abundance scored as decreased, DMSO-normalised (count); higher = more persistent destabilization
AKT1 = AKT1 (UniProt P31749); assay: as above

SMILES | kinase-Nluc reporter destabilization hit call (RET) | kinase-Nluc reporter destabilization hit call [1] | kinase-Nluc reporter destabilization hit call (RIOK1) | kinase-Nluc reporter destabilization hit call (RIPK1) | kinase-Nluc reporter destabilization hit call (RIPK2) | kinase-Nluc reporter destabilization hit call (ROR2) | kinase-Nluc reporter destabilization hit call (RPS6KA1) | kinase-Nluc reporter destabilization hit call (SPHK1) | kinase-Nluc reporter destabilization hit call (SRC) | kinase-Nluc reporter destabilization hit call (STK24) | kinase-Nluc reporter destabilization hit call (STK38) | kinase-Nluc reporter destabilization hit call (SYK) | kinase-Nluc reporter destabilization hit call (TEC) | kinase-Nluc reporter destabilization hit call (TYK2) | kinase-Nluc reporter destabilization hit call (ULK3) | kinase-Nluc reporter destabilization hit call (YES1) | kinase-Nluc reporter destabilization hit call (ZAK) | kinase-Nluc reporter destabilization hit call (ZAP70) | number of time points (ABL1) | number of time points (AKT1)
O=C(ON=C1c2ccccc2-c2nc3ccccc3nc21)c1ccco1 (2.5 µM) | inactive: 0 | inactive: 0 | inactive: 0 | inactive: 0 | inactive: 0 | inactive: 0 | inactive: 0 | inactive: 0 | inactive: 0 | inactive: 0 | inactive: 0 | inactive: 0 | inactive: 0 | inactive: 0 | inactive: 0 | inactive: 0 | inactive: 0 | inactive: 0 | 0 | 0
CN1CCC(CNc2ccc3ncc(-c4cccc(OC(F)(F)F)c4)n3n2)CC1 (2.5 µM) | inactive: 0 | inactive: 0 | inactive: 0 | inactive: 0 | inactive: 0 | inactive: 0 | inactive: 0 | inactive: 0 | inactive: 0 | inactive: 0 | inactive: 0 | inactive: 0 | inactive: 0 | inactive: 0 | inactive: 0 | inactive: 0 | inactive: 0 | inactive: 0 | 0 | 0
Cc1ccc(-n2nc(C(C)(C)C)cc2NC(=O)Nc2ccc(OCCN3CCOCC3)cc2)cc1 (10 µM) | inactive: 0 | inactive: 0 | inactive: 0 | inactive: 0 | inactive: 0 | inactive: 0 | inactive: 0 | inactive: 0 | inactive: 0 | inactive: 0 | inactive: 0 | inactive: 0 | inactive: 0 | inactive: 0 | inactive: 0 | inactive: 0 | inactive: 0 | inactive: 0 | 0 | 0
N#Cc1cnc2c(Cl)cc(NCc3cn(CCN4CCCCCC4)nn3)cc2c1Nc1ccc(F)c(Cl)c1 [Cot inhibitor-1] (10 µM) | inactive: 0 | inactive: 0 | inactive: 0 | inactive: 0 | inactive: 0 | inactive: 0 | inactive: 0 | inactive: 0 | inactive: 0 | inactive: 0 | inactive: 0 | inactive: 0 | inactive: 0 | inactive: 0 | inactive: 0 | inactive: 0 | inactive: 0 | inactive: 0 | 0 | 0
CO[C@H]1CC[C@H](N2C(=O)CNc3ncc(-c4ccc(C(C)(C)O)nc4)nc32)CC1 (2.5 µM) | inactive: 0 | inactive: 0 | inactive: 0 | inactive: 0 | inactive: 0 | inactive: 0 | inactive: 0 | inactive: 0 | inactive: 0 | inactive: 0 | inactive: 0 | inactive: 0 | inactive: 0 | inactive: 0 | inactive: 0 | inactive: 0 | inactive: 0 | inactive: 0 | 0 | 0
O=C(c1cccc(Cl)c1F)N1CCN(Cc2cccc(Nc3nccs3)n2)CC1 (2.5 µM) | inactive: 0 | inactive: 0 | inactive: 0 | inactive: 0 | inactive: 0 | inactive: 0 | inactive: 0 | inactive: 0 | inactive: 0 | inactive: 0 | inactive: 0 | inactive: 0 | inactive: 0 | inactive: 0 | inactive: 0 | inactive: 0 | inactive: 0 | inactive: 0 | 1 | 0
NC(=O)c1cnc(-c2ccc(C3(N)CCC3)cc2)c(-c2ccccc2)c1 (10 µM) | inactive: 0 | inactive: 0 | inactive: 0 | inactive: 0 | inactive: 0 | inactive: 0 | inactive: 0 | inactive: 0 | inactive: 0 | inactive: 0 | inactive: 0 | inactive: 0 | inactive: 0 | inactive: 0 | inactive: 0 | inactive: 0 | inactive: 0 | inactive: 0 | 0 | 0
NC1(C(=O)NCCCn2cc(-c3ccc(OC(F)(F)F)cc3)c3cc(CN4CCN(Cc5c(Cl)cccc5Cl)CC4)ccc32)CCNCC1 (2.5 µM) | inactive: 0 | inactive: 0 | inactive: 0 | inactive: 0 | inactive: 0 | inactive: 0 | inactive: 0 | inactive: 0 | inactive: 0 | inactive: 0 | inactive: 0 | inactive: 0 | inactive: 0 | inactive: 0 | inactive: 0 | inactive: 0 | inactive: 0 | inactive: 0 | 0 | 0
O=C1Nc2ccc(I)cc2/C1=C/c1cc(Br)c(O)c(Br)c1 (10 µM) | inactive: 0 | inactive: 0 | inactive: 0 | inactive: 0 | inactive: 0 | inactive: 0 | inactive: 0 | inactive: 0 | inactive: 0 | inactive: 0 | inactive: 0 | inactive: 0 | inactive: 0 | inactive: 0 | inactive: 0 | inactive: 0 | inactive: 0 | inactive: 0 | 0 | 0
COc1cc(N2CCC(N3CCN(C)CC3)CC2)ccc1Nc1ncc(Cl)c(-c2c[nH]c3ccccc23)n1 (2.5 µM) | inactive: 0 | inactive: 0 | inactive: 0 | inactive: 0 | inactive: 0 | inactive: 0 | inactive: 0 | inactive: 0 | inactive: 0 | inactive: 0 | inactive: 0 | inactive: 0 | inactive: 0 | inactive: 0 | inactive: 0 | inactive: 0 | inactive: 0 | inactive: 0 | 0 | 0
Nc1nc2c(nc(Br)n2[C@@H]2O[C@@H]3COP(=O)(O)O[C@H]3[C@H]2O)c(=O)[nH]1 [8-Bromo-cGMP (sodium)] (10 µM) | inactive: 0 | inactive: 0 | inactive: 0 | inactive: 0 | inactive: 0 | inactive: 0 | inactive: 0 | inactive: 0 | inactive: 0 | inactive: 0 | inactive: 0 | inactive: 0 | inactive: 0 | inactive: 0 | inactive: 0 | inactive: 0 | inactive: 0 | inactive: 0 | 0 | 0
CN1CCN(c2ccc(Nc3ncc4cc(C#N)c(=O)n(C5CCCC5)c4n3)cc2)CC1 (10 µM) | inactive: 0 | inactive: 0 | inactive: 0 | inactive: 0 | inactive: 0 | inactive: 0 | inactive: 0 | inactive: 0 | inactive: 0 | inactive: 0 | inactive: 0 | inactive: 0 | inactive: 0 | inactive: 0 | inactive: 0 | inactive: 0 | inactive: 0 | inactive: 0 | 0 | 0
COc1cc2ncnc(Oc3ccc(CC(=O)Nc4cnn(C(C)C)c4)cc3)c2cc1OC (10 µM) | inactive: 0 | inactive: 0 | inactive: 0 | inactive: 0 | inactive: 0 | inactive: 0 | inactive: 0 | inactive: 0 | inactive: 0 | inactive: 0 | inactive: 0 | inactive: 0 | inactive: 0 | inactive: 0 | inactive: 0 | inactive: 0 | inactive: 0 | inactive: 0 | 1 | 0
CNC(=O)c1ccc2c(C(=Nc3cccc(CN(C)C)c3)c3ccccc3)c(O)[nH]c2c1 [MEK inhibitor] (10 µM) | inactive: 0 | inactive: 0 | inactive: 0 | inactive: 0 | inactive: 0 | inactive: 0 | inactive: 0 | inactive: 0 | inactive: 0 | inactive: 0 | inactive: 0 | inactive: 0 | inactive: 0 | inactive: 0 | inactive: 0 | inactive: 0 | inactive: 0 | inactive: 0 | 0 | 0
O=C(Nc1cccnc1)c1cc(-c2ccnc(F)c2)ccc1OCc1ccccc1 (10 µM) | inactive: 0 | inactive: 0 | inactive: 0 | inactive: 0 | inactive: 0 | inactive: 0 | inactive: 0 | inactive: 0 | inactive: 0 | inactive: 0 | inactive: 0 | inactive: 0 | inactive: 0 | inactive: 0 | inactive: 0 | inactive: 0 | inactive: 0 | inactive: 0 | 0 | 0
Fc1ccc2[nH]ccc2c1-c1nc(N2CCOCC2)c2sc(CN3CCN(CC4CC4)CC3)cc2n1 (10 µM) | inactive: 0 | inactive: 0 | inactive: 0 | inactive: 0 | inactive: 0 | inactive: 0 | inactive: 0 | inactive: 0 | inactive: 0 | inactive: 0 | inactive: 0 | inactive: 0 | inactive: 0 | inactive: 0 | inactive: 0 | inactive: 0 | inactive: 0 | inactive: 0 | 0 | 0
O=C(O)c1ccc(/C=C/S(=O)(=O)Cc2ccc(Cl)cc2)cc1 [Recilisib] (10 µM) | inactive: 0 | inactive: 0 | inactive: 0 | inactive: 0 | inactive: 0 | inactive: 0 | inactive: 0 | inactive: 0 | inactive: 0 | inactive: 0 | inactive: 0 | inactive: 0 | inactive: 0 | inactive: 0 | inactive: 0 | inactive: 0 | inactive: 0 | inactive: 0 | 0 | 0
COc1cc(-c2cc(OP(=O)(O)O)cc(-c3cc(OC)c(OC)c(OC)c3)c2)cc(OC)c1OC [Stafia-1] (10 µM) | inactive: 0 | inactive: 0 | inactive: 0 | inactive: 0 | inactive: 0 | inactive: 0 | inactive: 0 | inactive: 0 | inactive: 0 | inactive: 0 | inactive: 0 | inactive: 0 | inactive: 0 | inactive: 0 | inactive: 0 | inactive: 0 | inactive: 0 | inactive: 0 | 0 | 0
CNC(=O)CNc1cnc2ccc(-c3ccc(OC)c(OC)c3)cc2n1 (10 µM) | inactive: 0 | inactive: 0 | inactive: 0 | inactive: 0 | inactive: 0 | inactive: 0 | inactive: 0 | inactive: 0 | inactive: 0 | inactive: 0 | inactive: 0 | inactive: 0 | inactive: 0 | inactive: 0 | inactive: 0 | inactive: 0 | inactive: 0 | inactive: 0 | 0 | 0

Arranged by molar mass (ascending): some entries from above
SMILES | kinase-Nluc reporter destabilization hit call (RET) | kinase-Nluc reporter destabilization hit call [1] | kinase-Nluc reporter destabilization hit call (RIOK1) | kinase-Nluc reporter destabilization hit call (RIPK1) | kinase-Nluc reporter destabilization hit call (RIPK2) | kinase-Nluc reporter destabilization hit call (ROR2) | kinase-Nluc reporter destabilization hit call (RPS6KA1) | kinase-Nluc reporter destabilization hit call (SPHK1) | kinase-Nluc reporter destabilization hit call (SRC) | kinase-Nluc reporter destabilization hit call (STK24) | kinase-Nluc reporter destabilization hit call (STK38) | kinase-Nluc reporter destabilization hit call (SYK) | kinase-Nluc reporter destabilization hit call (TEC) | kinase-Nluc reporter destabilization hit call (TYK2) | kinase-Nluc reporter destabilization hit call (ULK3) | kinase-Nluc reporter destabilization hit call (YES1) | kinase-Nluc reporter destabilization hit call (ZAK) | kinase-Nluc reporter destabilization hit call (ZAP70) | number of time points (ABL1) | number of time points (AKT1)
CN1CCN(c2ccc(Nc3ncc4cc(C#N)c(=O)n(C5CCCC5)c4n3)cc2)CC1 (10 µM) | inactive: 0 | inactive: 0 | inactive: 0 | inactive: 0 | inactive: 0 | inactive: 0 | inactive: 0 | inactive: 0 | inactive: 0 | inactive: 0 | inactive: 0 | inactive: 0 | inactive: 0 | inactive: 0 | inactive: 0 | inactive: 0 | inactive: 0 | inactive: 0 | 0 | 0
COc1cc(-c2cc(OP(=O)(O)O)cc(-c3cc(OC)c(OC)c(OC)c3)c2)cc(OC)c1OC [Stafia-1] (10 µM) | inactive: 0 | inactive: 0 | inactive: 0 | inactive: 0 | inactive: 0 | inactive: 0 | inactive: 0 | inactive: 0 | inactive: 0 | inactive: 0 | inactive: 0 | inactive: 0 | inactive: 0 | inactive: 0 | inactive: 0 | inactive: 0 | inactive: 0 | inactive: 0 | 0 | 0
NC1(C(=O)NCCCn2cc(-c3ccc(OC(F)(F)F)cc3)c3cc(CN4CCN(Cc5c(Cl)cccc5Cl)CC4)ccc32)CCNCC1 (2.5 µM) | inactive: 0 | inactive: 0 | inactive: 0 | inactive: 0 | inactive: 0 | inactive: 0 | inactive: 0 | inactive: 0 | inactive: 0 | inactive: 0 | inactive: 0 | inactive: 0 | inactive: 0 | inactive: 0 | inactive: 0 | inactive: 0 | inactive: 0 | inactive: 0 | 0 | 0
